# Primary screen of a compound library

Values are the deposited “Percent Effect”, in %. The controls that fix the scale are not given in the record; negative values are as filed. The compounds are a random part of those screened. Two or more numbers in one place are separate tests of the same structure; such repeats can differ widely.

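Viability assay of Plasmodium falciparum sporozoites; the read-out is not stated. The concentration is filed as 10 mM, unlikely as a test dose, so the dose is not known. The record gives no direction; compounds that gave an IC50 in retests scored well above the rest, so higher reads as lower viability. Strong results were mostly tested again. About 34,000 compounds were tested under these conditions; 0.84% (about 280) showed 50% or more at least once.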

Result for CCOCC1CN(C(=O)C2=CCCC2)Cc2cnn(C)c21 (configuration not stated) was 8.432%. COc1ncccc1CNC(=O)NCc1ccco1 read -5.981%. CC(NC(=O)C(C)(C)C#N)c1ccc(OCC2CC2)c(F)c1 (configuration not stated) read -1.81%. With O=C(O)C(F)(F)F.O=C(O)C(F)(F)F.O=C(O)C(F)(F)F.O=C(O)C(F)(F)F.[H][C@@]12CCCO[C@]1([H])[C@H](N(C)Cc1cccnc1)CN2Cc1cnn(C)c1 the screen gave 12.14%. O=C1OCCN1C1CCN(Cc2cc3n(n2)CCCNC3)CC1 read 5.614%.

Result for CNS(=O)(=O)CCCN1CCCC1c1noc(C)n1 (configuration not stated) was 1.282%. c1cncc(CN2CCCC3(COCCN(c4cncnc4)C3)C2)c1 (configuration not stated) read -1.976%. O=C(O)C(F)(F)F.[H][C@@]12CCN(Cc3nccs3)[C@]1([H])C[C@@H](C(=O)N(C)C)O2 gave 8.123%. For CC[C@@H]1N(Cc2ccc(C)s2)CCC[C@]12CCC(=O)N2C.O=C(O)C(F)(F)F the result was -2.708%. For O=C(c1cnc2ccccc2c1)N1CCCC(O)(CN2CCCC2)C1 (configuration not stated) the result was -21.99% & -12.44%.

Result for Cc1ccc(C)c(OC2CCN(C(=O)c3ccc(C)[nH]c3=O)CC2)c1 was 11.71%. With COc1ccc(CNC(=O)NCCCNS(C)(=O)=O)cc1OC the screen gave -1.211%. CN(Cc1nnc(C2CC2)n1C)S(=O)(=O)c1ccccc1C#N read -4.632%. O=C(CCCn1cncn1)N1CCC2(CCCN(C3CCCC3)C2=O)C1 (configuration not stated) read -9.813%. Cc1cc(C2CCNCC2)nc(-c2ccsc2)n1.Cl read -0.3746%.

O=C(O)C(F)(F)F.[H][C@@]12CO[C@@H](CNC(=O)c3nccn3C)[C@]1([H])CCN(CCC)C2 gave -5.366%. Result for Cc1cc(C(=O)N[C@H]2CC[C@@]3(CCC(=O)N3C)CC2)no1 was 26.01%. With CC(Cn1ccnc1)NC(=O)NCCc1cccnc1 (configuration not stated) the screen gave -7.358% & -1.828% & -11.51%. For CCCn1nc2c(cc1=O)CN(c1ncnc3sccc13)CC2 the result was -19.95%. With CCn1nccc1CN(C)C(=O)Cn1nc(C)c(C)c1C the screen gave 3.949%.

Cc1nc(CN2CCCC23CCN(c2nc4ccccc4s2)CC3)co1 gave -5.979% & 10.05%. [H][C@@]12OCCC[C@]1([H])N(C(=O)c1cnc(C)cn1)C[C@@H]2N1CCOCC1 read 6.245%. c1cnnc(N2CCCC2CNCc2nc(-c3ccsc3)no2)c1 (configuration not stated) read 19.65%. CCn1ncc2c1C(COC)CN(Cc1ccc(F)cc1)C2.O=C(O)C(F)(F)F.O=C(O)C(F)(F)F (configuration not stated) read 5.175%. CC(C)(C(=O)NCc1ccc(C#N)cc1)n1cc(Br)cn1 gave 1.6%.

Cl.O=C(NCc1cccc(Cl)c1)C1=NOC2(CCNC2)C1 (configuration not stated) read -6.813%. For Cc1cc(-c2ccccc2C(=O)O)nc(C2CCCN2S(C)(=O)=O)n1 (configuration not stated) the result was 1.151%. Result for Cc1cc(=O)[nH]c(NCCNC(=O)C(c2ccc(F)cc2)N(C)C)n1 (configuration not stated) was -4.958%. Result for Cc1nc(C2CCCN2C(=O)c2ccc(F)cc2)ncc1C(N)=O (configuration not stated) was -5.47%. CCc1csc(C2CCCN(C(=O)C3=NN(CC)C(=O)CC3)C2)n1 (configuration not stated) read -7.032%.

For CCOC1CCN(C(=O)c2cnn(-c3ccccc3Cl)c2)CC1 the result was 1.92%. O=C(O)C(F)(F)F.O=C(c1cccc(F)c1)N1CCC2(CC1)CC(N1CCOCC1)C2 read -10.11%. CC(C)Oc1ncccc1CNC(=O)Nc1ccccn1 read 3.903%. Result for CN(CCC(F)(F)F)C(=O)[C@H]1CSCN1C(=O)OC(C)(C)C was -4.132%. Result for O=C(c1ccc2c(c1)CCCC2)N1CCn2ncnc2C1 was -6.088%.

Result for CCc1nc2ccccc2c(=O)n1CC1(O)CCN(C(=O)C2CC2)CC1.Cl was -1.178%. [H][C@@]12CS(=O)(=O)C[C@]1([H])N(Cc1ncc[nH]1)CCN2CC1CC1 read -4.824%. CC(=O)Nc1ccc(Oc2cc(C)nc(C3CCNCC3)c2)cc1.Cl gave 9.111%. COc1cccc2c1ccn2CCNC(=O)C(C)C read -16.67%. With CN(C(=O)C1CCCCC1)[C@@H]1CCC[C@@H](N2CCOCC2)[C@@H]1O the screen gave -25.47%.

O=C(CC1CCCCC1)NC1CCCCNC1=O (configuration not stated) gave -3.921%. With Cc1cn([C@H]2CCNC[C@]2(C)O)c(=O)[nH]c1=O the screen gave 2.346%.

Repeated from the top, 4 entries:

| SMILES | percent effect |
|---|---|
| `CCOCC1CN(C(=O)C2=CCCC2)Cc2cnn(C)c21` (configuration not stated) | 8.432 |
| `COc1ncccc1CNC(=O)NCc1ccco1` | -5.981 |
| `CC(NC(=O)C(C)(C)C#N)c1ccc(OCC2CC2)c(F)c1` (configuration not stated) | -1.81 |
| `O=C(O)C(F)(F)F.O=C(O)C(F)(F)F.O=C(O)C(F)(F)F.O=C(O)C(F)(F)F.[H][C@@]12CCCO[C@]1([H])[C@H](N(C)Cc1cccnc1)CN2Cc1cnn(C)c1` | 12.14 |

Measurements from “University of Dundee, Small-Polar-MMV Screening Library” (2021), ChEMBL document CHEMBL3988442.